# Results taken from paper PMC10530652 (BME Frontiers, 2021).
# Test: general procedure: Fmoc solid-phase peptide synthesis; Aminomethyl-ChemMatrix resin with Rink amide linker; DIC/Oxyma
# Conditions: whole synthesis, analytical RP-HPLC, MALDI-TOF MS
substance,measurement,value
(Pro-Phe-Gly-Nle-Lys-βAla)3,final HPLC purity,>95%
